Measurements from PubChem BioAssay AID1508600 (Functional Genomics Laboratory (NCATS/FGL), 2020).
Hit rate of the full screen: of about 53,000 sequences, about 3,700 (7%) were called active.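 Rule for the calls: active = gene knockdowns whose robust z-score for IL-1 alpha signal is at least 2 or at most -2, so actives lie on both sides; inactive = the rest.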 The list shows a part of the results.

Assay: Components of the Cytosolic LPS Sensing Pathway: Gene Identification via Genome-wide siRNA Screen;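 note: robust z of the log signal after scaling to non-targeting control siRNA wells of the plate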
Conditions: RAW264.7 macrophages, IL-1a HTRF, actives lie on both sides, screened at 100 nM (by protocol), cells primed 5 h with Pam3CSK4 first
Summary of the method: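 Supernatant IL-1a by HTRF from RAW264.7 cells primed with Pam3CSK4 (5 hours) and transfected with LipidA (24 hour) after 48h siRNA knockdown at 100 nM; cell viability checked with CellTiter-Glo.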

Sequence	z-score
GGAGGAGAUGAUGAAUUUUTT against Etf1	inactive: 0.965
GGCACACUUAUCAAAUAAATT against Rrm1	inactive: -0.281
CCAGAACGAAUCCCACUGUTT against Cmtm8	inactive: -0.409
GGAUGAUCCAGACUAACUUTT against Abcb6	inactive: -0.655
GCGGCUAACUGAAUACAUGTT against Osbpl1a	inactive: 0.975
GGACACACUACCGAACAUUTT against Gfral	inactive: -0.18
CGAUAAAAUCAUUGUGGGCTT against Bbs9	inactive: -1.18
GCAUCGAUCUUUAUACACUTT against Arhgef12	inactive: 1.13
GCCUUGGCCGAGGUUAAUUTT against Rtl5	inactive: -0.329
CCUAUCUUUACCACAUAGATT against Vps35l	inactive: -1.59
GGAAGUCUCAUCGUAAUUCTT against Bud13	inactive: -1.71
GGACUGUCUGAUGUCAAAGTT against Synpr	inactive: 0.619
CCAAGAUCACAUACCGUGATT against Acss2	inactive: -1.12
GGAGUUCUUUCUGAGGUGUTT against Uqcc1	inactive: 0.864
GGAACUUGGGCAUUCCAGATT against Adck2	inactive: -0.676
GGCUUGGAAGGAUUAGAAGTT against Ppp1r42	inactive: 0.901
GCUAAUCUUUCCUCUGCCCTT against Mff	inactive: -0.993
CCAUAGUAUUGAUGUCUGCTT against Nat8f2	inactive: 0.363
GGAUGGUGCAUACCUCUUCTT against Axin2	inactive: 1.08
GGAUAAAUCCUCAGAUGAUTT against Lrrc46	inactive: 0.766
CCUUCUAAAUGACCUGUUUTT against Fam3a	inactive: -1.21
GGUUAUAGGAAGGAAUUGCTT against Krt90	active: 2.58

Sequence	z-score
CCUAUGAACCCUAGGGUACTT against Ccdc142	inactive: 0.705
GGUGCUGGAGAACAUUCUATT against Angpt2	inactive: 0.67
GGACCUUGGUAAUAGAAAGTT against Pdzd4	inactive: -0.0636
GGCGAAAAAGAACUUCUCCTT against Prrx1	active: -2.17
GGUUCAUGAAUGACAAACUTT against Sult4a1	inactive: 0.383
CCUAGUGUUAGAACAGAUCTT against Zmynd10	inactive: 0.363
GGAUCAUCAACCAUCUAAUTT against Srsf7	inactive: -1.11
GGGCUACACAAAAUUUUAATT against Cxcl11	inactive: 1.2
GGAAACACACUGGUUCUGATT against Il6ra	inactive: -0.0608
GGAAAGAAAUGCUGAAAAUTT against Atp2a2	inactive: -0.199
GCUAUUCAAUCUGAGGAAATT against Olfr1278	inactive: 0.246
CCUGUAGCUAGCUUCUAGGTT against Adamts10	inactive: -0.46
GGAUAUUGCCAGUAAUUAATT against Kif21a	inactive: 0.212
CCACCUCCAUCGAUGUUAUTT against Rassf9	inactive: -1.84
GGAAAAAAACUUGCUGGAUTT against Ppp3ca	inactive: -0.681
CCUCUUGAGUCGAGAUAUGTT against Wdr60	inactive: -0.32
GGGAUUGGGUUCCAAUCUUTT against Slc35b1	inactive: -0.187
GGAGAAGCAGCAACAGCUATT against Asgr2	inactive: -0.64
GGCUGUGAAGCUUACCAGCTT against Tm9sf4	inactive: 0.123
CCGCUCACGUGAAAAAGUUTT against Tars2	inactive: 0.327
GGUCAUAGAUAACACGCUCTT against Cpne5	inactive: 0.312
GGUAUUUUUCAACAUUCUGTT against Slc9a7	inactive: 0.36

Copied from the listing (3 entries):
Sequence	z-score
GGGCUACACAAAAUUUUAATT against Cxcl11	inactive: 1.2
GGAAACACACUGGUUCUGATT against Il6ra	inactive: -0.0608
GGAAAGAAAUGCUGAAAAUTT against Atp2a2	inactive: -0.199

The list continues.

Sequence	z-score
GCGCAACAGGAUUCAGCUATT against Csmd1	inactive: -1.09
GCCUUCCAGUCAGUGAAAUTT against Foxn1	inactive: -0.174
GUCUUCAUACUCCAAUGUATT against Olfr878	inactive: 1.05
GGAUUCAUGUUCCAUAUGUTT against Ubox5	inactive: -0.169
GGAAAUUAAGUGAUUUGACTT against Ranbp10	inactive: -0.213
CCACCAUUCGGCUCUUUUGTT against Nupl2	inactive: -0.822
CGGUUACUUCAGAAAUCUATT against Tlr5	inactive: 1.42
GCUGUAUUCGCUGUGCCGUTT against St6galnac2	inactive: 1.51
GGGCAUUUUUACAGUUUUCTT against Chfr	inactive: 1.97
GUACGUCAUGGGUCACUUCTT against Pomc	inactive: -0.259
GCCAGUAAUCCAUACCGUGTT against C6	inactive: 0.115
GGACAAUUGGGCCAAACUGTT against Mpv17	inactive: 0.103
GGUCACAGAAUGAAUGACUTT against Htra2	inactive: -1.08
GGAUUCACGAGCAUAAGCUTT against 1700020D05Rik	inactive: -1.31
GCAGUGUCUAGGACAGUCATT against Pdcd5	inactive: 0.0243
GGGAAAGUCAGUUUAAAGATT against Baz1b	inactive: 0.26
GCCCUUGUGAUUCGAAAUGTT against Atp1a1	inactive: 1.39
GGAUUACUGUGCUUCUAAUTT against Olfr788	inactive: 0.743
GGUUUUGGGCAAAAUUGAGTT against Edf1	inactive: -0.899
GGUGGCAGUAUGAAUUCGATT against Serpina12	inactive: 1.2
GGCAAGAAAAAUCAGAUUGTT against Cyld	active: 3
GGCUCCCUUUUUUGUACUATT against Olfr1056	inactive: -0.463

Sequence	z-score
GGAUCAAGAAAAGAUGAAATT against Galnt1	inactive: -0.858
CCAUUUGAUGACAGUAAUATT against Olfr178	inactive: 1.03
GGCAUUGAAGCUGAAAAGATT against Armt1	inactive: -0.00635
GGAGGCCUAUUUAAUGGAGTT against Dusp21	inactive: 1.1
GGCAGACAAGUUCACAGUGTT against Igsf6	inactive: -1.38
CCUAACAAGGGAAUAAAUGTT against Icosl	inactive: -1.12
GCUCUAUGAGAGUAUAUUATT against Tamm41	inactive: -0.495
CCAUACUAUUUGCUUUUGCTT against Atg5	inactive: 0.127
GGCAAGACUGAGCAAGAUUTT against Catsper3	inactive: -1.05
GGAAAUCUCUUCAUGGAUATT against Kng1	inactive: -0.425
GGAAUUCAACUCAGAUAAGTT against C3	inactive: 0.338
CCUGGUUAGAGCAAGGAUGTT against Slc25a42	inactive: -0.145
GGACUUCAGCAAUGUCUUGTT against Rab17	inactive: 0.801
GGAAGUGUAAUGGAAGCAATT against Mdfic	inactive: 0.955
GGGAGUGAUGGUACCCUAUTT against Myf6	inactive: -0.598
GGGUUCUUUCACUGAACGATT against Pskh1	inactive: 0.9
CCCUGAAACAAUGAAUACATT against Serpini1	inactive: 0.325
GGCCACGUUACACGUACUUTT against Wnt3a	inactive: 0.123
GGACUGAAUUUACUCUUAATT against Scai	inactive: 0.485
GCUGGUGGCACUGAAGCUATT against Nme3	inactive: -1.48
GGACACCAAAGUGAAUACATT against Cdhr5	inactive: 0.122
GGCCAGAACUUAAAUUUUCTT against Nbr1	inactive: 0.658

Sequence	z-score
GGCCAUCCUGGGCUAAAUATT against Abcb8	inactive: 0.626
CCGUGUUCUCUAUCCAGCATT against Slc7a9	inactive: -0.247
GGAAAGAAAGAGAAGAACATT against Phf21a	inactive: 0.177
GGCACAACUGAUUUUGAAATT against Ifngr2	inactive: -0.362
GCUAAUGCUUGUUGAACACTT against Hpcal4	inactive: 1.54
GGAAGAAAAACUCUUGCACTT against Cdc5l	inactive: 0.292
GGGUAGAGGCCUUGAAAAUTT against Gps1	inactive: 1.26
CGACCAAGAGCAAAACGAUTT against Gm266	inactive: 0.97
GCUGGAAUACGGAAAAUGGTT against Gbe1	inactive: -1.56
CCAUUAUGAAGAAGCUGUUTT against Rilpl2	inactive: -0.138
GGCUUACAAAAAGUACAUCTT against Tpt1	active: 4.36
GGUAGAAGAGGAAUCUUGGTT against Pitpnm1	inactive: -1.3
CGGUCAUUUACGAGAUACCTT against Pdgfa	inactive: 0.462
GGCCUUCAAGUGCAUGAUGTT against Yaf2	inactive: -1.65
GCUAAGCUGGAUCCAUAAUTT against Gm11545	inactive: 1.35
CCAUGAGACAAGAUUUAGATT against Olfr818	inactive: -0.751
CCAUGUAAGAUGUUAAGUATT against Abcb1a	inactive: -0.265
CCGGAUGUGCCUUGUCUACTT against Ckap5	inactive: -1.58
GGAAGAAGGCUAUAAGAAATT against Galnt6	inactive: 0.515

Reformatted bar-delimited: part of the list above
Sequence | z-score
GGAAAGAAAGAGAAGAACATT against Phf21a | inactive: 0.177
GGUAGAAGAGGAAUCUUGGTT against Pitpnm1 | inactive: -1.3
GGCCUUCAAGUGCAUGAUGTT against Yaf2 | inactive: -1.65
